Screen size: about 320,000 compounds; about 22,000 (6.9%) were called active. This list was built around the results that the source calls inconclusive (neither active nor inactive); the mix of calls is not that of the screen. Calls come from the whole dose curve; as a rule, active = well fitted inhibition curve with a large enough effect; inconclusive = small, poorly fitted or top-dose-only effect, or another doubt; inactive = no such curve, though single readings can be large or run the other way. Where the call is inconclusive, the potency comes from a doubtful curve fit.
experiment: Primary qHTS for delayed death inhibitors of the malarial parasite plastid, 96 hour incubation; conditions: P. falciparum luciferase reporter growth; series mostly up to 28.7 µM; activity change, negative = inhibition: at the top concentration
Method in brief: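 Erythrocytes infected with luciferase-expressing P. falciparum were dispensed at 2% hematocrit and 0.05% parasitemia (final), then incubated with compounds 96 hours at 37 C in 5% CO2. Luminescence after detection reagent addition reported growth.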
% is set by controls: 0 for no effect and ±100 for the full control effect; potency is the fitted concentration of half-maximal effect.

| SMILES | activity change, negative = inhibition | Potency |
| --- | --- | --- |
| O=[N+]([O-])c1cccc(-c2cn(-c3ccccc3)c(=S)[nH]2)c1 | inactive: -5.97% |  |
| C#CCOc1ccc(/C=C2/C(=O)NN(c3ccccc3)C2=O)cc1OC |  | inconclusive: 18.5 µM [inhibitor, single point] |
| CC(C)[C@H](NS(=O)(=O)c1cccc(C(F)(F)F)c1)C(=O)OCC(N)=O | inactive: 29.8% |  |
| Cc1cccc(NC(=O)c2ccc(Cl)c(S(=O)(=O)N3CCc4ccccc43)c2)n1 |  | active: 11.7 µM |
| CCOC(=O)c1ccc(CNCc2ccc(C)cc2)cc1 |  | inconclusive: 18.5 µM [inhibitor, single point] |
| CCC(C)[C@H](NC(=O)[C@@H]1CSC2c3ccccc3C(=O)N21)C(=O)NCc1ccncc1 (stereo partly drawn) |  | inconclusive: 13.1 µM [inhibitor, partial curve, poor fit] |
| Cc1c(C(=O)N2CCN(CCc3ccccc3)CC2)oc2ccccc12 | inactive: 29.8% |  |
| CCn1c(NC(C)=O)nc2ccccc21 |  | inconclusive: 8.28 µM [inhibitor, partial curve] |
| CCOc1ccc(/C=C/C(=O)N(CC)CC(=O)NCc2cccs2)cc1OC | inactive: 4.59% |  |
| O=C(O)c1cccc(N2C(=O)Nc3ccccc3N2O)c1 |  | inconclusive: 11.7 µM [inhibitor, single point] |
| CC(NC(=O)c1cc(-c2ccncc2)nc2ccc(Br)cc12)C1CCCO1 (stereo not drawn) |  | inconclusive: 18.5 µM [inhibitor, single point] |
| O=C(c1ccc2c(c1)N(Cc1cccc(Cl)c1)C(=O)c1ccccc1S2(=O)=O)N1CCN(c2ccccn2)CC1 | inactive: 26.5% |  |
| CC(C)N(C(=O)Cn1cc(S(=O)(=O)CC(=O)NCc2ccccc2)c2ccccc21)C(C)C | inactive: -16.2% |  |
| COc1ccc(C(=O)C2CCN(C(=O)c3ccc(OC)cc3)CC2)cc1 |  | inconclusive: 18.5 µM [inhibitor, single point] |
| CCN(CCCNC(=O)CCCOc1cc(=O)n(C)c2ccccc12)Cc1ccccc1 |  | inconclusive: 13.1 µM [inhibitor, single point] |
| C=CCNC(=S)N1CCN(c2ccc([N+](=O)[O-])cc2)CC1 |  | inconclusive: 13.1 µM [inhibitor, partial curve, poor fit] |
| NNC(=S)Nc1cccc(Cl)c1 |  | inconclusive: 16.5 µM [inhibitor, single point] |
| CC(=O)Nc1cc2c(nc1C)nc(C)n2Cc1ccc(Br)cc1 | inactive: 4.36% |  |
| CC1C(=O)N(Cc2ccccc2F)c2ccccc2N1C(=O)c1c(F)cccc1F (stereo not drawn) |  | inconclusive: 13.1 µM [inhibitor, partial curve] |
| Cc1ccc(NC2=C(CC(=O)O)C(c3ccccc3)N(c3ccc(C)cc3)C2=O)cc1 (stereo not drawn) |  | inconclusive: 10.4 µM [inhibitor, partial curve, poor fit] |
| Cc1[nH]n(-c2ccccc2)c(=O)c1N=Nc1ccccc1C(=O)N1CCCCC1 |  | inconclusive: 0.0029 µM [inhibitor, full curve, poor fit] |
| CS(=O)(=O)N(Cc1ccc(C(=O)NCc2ccco2)cc1)c1ccccc1 | inactive: 8.69% |  |
| O=C(/C=C/Nc1cccc(F)c1)c1ccco1 |  | inconclusive: 7.38 µM [inhibitor, partial curve, poor fit] |

| SMILES | activity change, negative = inhibition | Potency |
| --- | --- | --- |
| CC(=O)Nc1ccc(S(=O)(=O)NCC(=O)NCCc2ccc(S(N)(=O)=O)cc2)cc1 |  | active: 0.828 µM |
| CN(CC(=O)Nc1ccc(N2CCOCC2)cc1)C(=O)CC(c1ccccc1)c1ccccc1 |  | inconclusive: 18.5 µM [inhibitor, single point] |
| CCCn1nnc(NC(=O)Cc2ccccc2)n1 | inactive: 37.9% |  |
| COc1ccc(F)cc1C(=O)C1CCCN(C(=O)CCN2CCCCO2)C1 (stereo not drawn) |  | inconclusive: 14.7 µM [inhibitor, single point] |
| O=C(Nc1nnc(C2CC2)s1)C1CCCCN1S(=O)(=O)c1ccccc1 (stereo not drawn) | inactive: -9.62% |  |
| CN(C)CCNS(=O)(=O)c1ccc(N2CCN(c3ccc(F)cc3)CC2)c([N+](=O)[O-])c1 |  | inconclusive: 13.1 µM [inhibitor, single point] |
| Fc1ccc(-c2nnc(CSc3nnc(-c4cccs4)o3)o2)cc1 | inactive: 65.4% |  |
| CC(C)C(NC(=O)c1c(F)cccc1F)C(=O)N1CCN(S(=O)(=O)c2ccc(F)cc2)CC1 (stereo not drawn) |  | inconclusive: 18.5 µM [inhibitor, single point] |
| CCOC(=O)c1ccc(Nc2nnc(C(C)(C)C)c(=O)[nH]2)cc1 |  | inconclusive: 11.7 µM [inhibitor, single point] |
| COc1ccc(Br)cc1CN(C)C(=O)c1cnc(C)cn1 | inactive: 2.9% |  |
| COc1ccc(S(=O)(=O)N2CCN(CCOc3ccccc3Cl)CC2)cc1OC |  | inconclusive: 16.5 µM [inhibitor, partial curve, poor fit] |
| COc1ccc(CCN(C)C(=O)c2cccc(S(=O)(=O)NCc3ccccc3)c2)cc1OC |  | inconclusive: 13.1 µM [inhibitor, partial curve, poor fit] |
| CCCn1c(=N)n(CC(O)c2ccc(C)cc2)c2ccccc21 (stereo not drawn) |  | active: 4.15 µM |
| CCn1nc(C(=O)Nc2cccc(S(=O)(=O)N3CCCC3)c2)c2ccccc2c1=O |  | inconclusive: 11.7 µM [inhibitor, partial curve, poor fit] |
| Cc1c(C(=O)NCc2cccnc2)sc2nc(-c3ccccc3)cn12 |  | inconclusive: 1.17 µM [inhibitor, full curve, poor fit] |
| O=C(CN1C2CCCC1CC(NC(=O)c1ccccc1)C2)Nc1ccccc1 (stereo not drawn) |  | active: 8.28 µM |
| Cc1ccc(CNC(=O)c2cc(S(=O)(=O)N3CCCCC3)ccc2N2CCOCC2)cc1 |  | inconclusive: 10.4 µM [inhibitor, partial curve, poor fit] |
| COc1ccc([C@]23Cc4cc(C#N)ccc4C(O2)c2c(cc(C)n(-c4ccccc4)c2=O)O3)cc1 |  | inconclusive: 1.51 µM [inhibitor, single point] |
| CCCOP(=O)(OCCC)C(NC(=O)c1cc(OC)c(OC)c(OC)c1)c1ccccc1 (stereo not drawn) |  | inconclusive: 7.38 µM [inhibitor, partial curve, poor fit] |
| CCc1ccc2nc(NC(=O)CSCc3c(C)noc3C)sc2c1 | inactive: 30.3% |  |
| NC1=NC(S)C2N=CN=C2N1 (stereo not drawn) |  | active: 7.57 µM |
| Cc1cccc(NC(=O)CN2C(=O)/C(=C3\SC(=S)N(CC4CCCO4)C3=O)c3ccccc32)c1 (stereo not drawn) | inactive: 37.8% |  |
| Cc1ccc(NC(=O)Nc2cccc([N+](=O)[O-])c2)cc1F |  | inconclusive: 18.5 µM [inhibitor, single point] |

| SMILES | activity change, negative = inhibition | Potency |
| --- | --- | --- |
| CCC(C)NC(=O)CNC(=S)N(Cc1ccc(F)cc1)C1CCCCC1 (stereo not drawn) |  | inconclusive: 4.15 µM [inhibitor, full curve] |
| O=c1c2cc(F)ccc2sn1-c1ccccc1 |  | active: 5.22 µM |
| Cc1cc(C)c2c(CC(=O)Nc3nccs3)coc2c1 |  | inconclusive: 10.4 µM [inhibitor, partial curve, poor fit] |
| O=C(NCCCO)/C(=C\c1cn(-c2ccccc2)nc1-c1cccnc1)NC(=O)c1ccccc1 |  | inconclusive: 18.5 µM [inhibitor, single point] |
| O=S(=O)(Nc1ccc(O)c2ccccc12)c1ccc(Br)cc1 |  | inconclusive: 1.65 µM [inhibitor, full curve] |
| Cc1noc(C)c1S(=O)(=O)Nc1ccccc1Cl |  | inconclusive: 18.5 µM [inhibitor, single point] |
| CC1=C(C(=O)Nc2ccc(C)cc2)C(c2ccco2)NC(=O)N1 (stereo not drawn) |  | inconclusive: 18.5 µM [inhibitor, single point] |
| COC(=O)c1ccccc1NC(=O)C1CC(=O)N(c2ccccc2)C1 (stereo not drawn) |  | inconclusive: 0.185 µM [inhibitor, full curve, poor fit] |
| COc1cc(C2c3c(-c4ccccc4)n[nH]c3C(=O)N2c2ccc(C(=O)O)cc2)ccc1O (stereo not drawn) |  | inconclusive: 18.5 µM [inhibitor, single point] |
| C[C@@H]1CC=C[C@H]2[C@H]1C(=O)N(Cc1ccccc1)[C@H]2c1ccc(F)c(/C=C/c2ccccc2)c1 |  | inconclusive: 18.5 µM [inhibitor, single point] |
| O=C(Cc1ccccc1)Nc1ccc(C(=O)Nc2ccccc2C(=O)O)cc1 |  | inconclusive: 20.8 µM [inhibitor, partial curve, poor fit] |
| O=C(Cc1ccc(-n2c(=S)[nH]c3ccccc3c2=O)cc1)N1CCC(N2CCCCC2)CC1 |  | inconclusive: 6.57 µM [inhibitor, partial curve] |
| Cc1ccc(Cl)c(OCC(=O)Nc2sc(C)c(C)c2C#N)c1 |  | inconclusive: 18.5 µM [inhibitor, single point] |
| CCn1c(C)c(C)c2cc(C(=O)NCCCN3CCN(C)CC3)ccc21 |  | inconclusive: 10.4 µM [inhibitor, partial curve, poor fit] |
| C=CCc1cc(Cl)ccc1OCCCn1ccnc1 |  | inconclusive: 10.4 µM [inhibitor, partial curve] |
| COc1cc(CNC(C)c2ccccc2)c(Br)cc1OCC(N)=O (stereo not drawn) |  | active: 8.28 µM |
| O=C(Cn1c(NCCO)nc2ccccc21)c1ccc(F)cc1 | inactive: -13.9% |  |
| COC(=O)c1cc2c(s1)-c1cc(F)ccc1OC2 | inactive: 66.6% |  |
| O=C(NNS(=O)(=O)c1ccccc1)C1CCCCC1 | inactive: 49.7% |  |
| CC(=O)c1ccc(-c2ccccc2[C@H]2[C@H]3C=CC[C@@H](C)[C@@H]3C(=O)N2Cc2ccccc2)cc1 |  | inconclusive: 18.5 µM [inhibitor, single point] |
| COc1ccccc1CC(=O)NCc1csc(-c2cccs2)n1 | inactive: 95.4% |  |
| Cc1ccc(C(=O)Nc2ccccc2N2CCCCC2)cc1[N+](=O)[O-] |  | inconclusive: 0.586 µM [inhibitor, full curve, poor fit] |

An excerpt from above in order of number of heavy atoms, ascending:

| SMILES | activity change, negative = inhibition | Potency |
| --- | --- | --- |
| COc1ccc(Br)cc1CN(C)C(=O)c1cnc(C)cn1 | inactive: 2.9% |  |
| COC(=O)c1ccccc1NC(=O)C1CC(=O)N(c2ccccc2)C1 (stereo not drawn) |  | inconclusive: 0.185 µM [inhibitor, full curve, poor fit] |
| CCn1c(C)c(C)c2cc(C(=O)NCCCN3CCN(C)CC3)ccc21 |  | inconclusive: 10.4 µM [inhibitor, partial curve, poor fit] |
